Experimental data: PubChem BioAssay AID1224826 (NIAID, 2016)
Test: 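Knock-downs that raise or lower Tnf reporter signal after endotoxin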 (primary screen). Cells: RAW264.7 G9 macrophages from mouse bearing reporters for p65 (GFP) and the Tnf promoter (mCherry). Reagents: siRNA pool against mouse genes, 100 nM. Time to read-out: 16 h of LPS stimulation, after 2 days of siRNA transfection. Treatment: bacterial lipopolysaccharide (Salmonella minnesota R595), 10 ng/ml. Measured: 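Imaged Tnf reporter mCherry in nuclei, minus background, normalised per plate to the median and expressed as robust z-scores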. Reading the numbers: Tnf reporter robust z-score: higher = stronger Tnf promoter reporter signal after LPS. Active means: 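Called active when robust z-score is at most -1.3, matching the median of the Tlr4 knock-down control, or over 3; control wells and wells with under 50 cells never active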. Meaning of the calls: active = Tnf reporter clearly lowered or raised; inactive = no clear change in Tnf reporter.
This is an unselected part of about 17,000 reagents tested. In the full data, about 1,110 (6.6%) got an active call. 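Active means lowered or raised reporter signal; replicate intensities are raw and not normalised per plate.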 Further read-outs or replicates are left out here.

gene | Tnf reporter robust z-score | fewer than 50 cells in well | Outcome
Scn1b (sodium channel, voltage-gated, type I, beta) | 0.56 | enough cells in well | inactive
Or11i1 (olfactory receptor family 11 subfamily I member 1) | – | fewer than 50 cells per well; well left out of calls | inactive
Ifngr1 (interferon gamma receptor 1) | -0.1 | enough cells in well | inactive
Cryz (crystallin, zeta) | -1.12 | enough cells in well | inactive
Alg1 (ALG1 chitobiosyldiphosphodolichol beta-mannosyltransferase) | -1.04 | enough cells in well | inactive
Hao1 (hydroxyacid oxidase 1, liver) | 0.75 | enough cells in well | inactive
Htt (huntingtin) | 0.03 | enough cells in well | inactive
Proser1 (proline and serine rich 1) | 1.74 | enough cells in well | inactive
Tti2 (TELO2 interacting protein 2) | 0.83 | enough cells in well | inactive
Vars2 (valyl-tRNA synthetase 2, mitochondrial) | 0.76 | enough cells in well | inactive
Serpina3n (serine (or cysteine) peptidase inhibitor, clade A, member 3N) | -0.2 | enough cells in well | inactive
Sntb2 (syntrophin, basic 2) | -0.78 | enough cells in well | inactive
Zrsr2-ps1 | – | fewer than 50 cells per well; well left out of calls | inactive
Nrbp2 (nuclear receptor binding protein 2) | 0.6 | enough cells in well | inactive
Chac2 (ChaC, cation transport regulator 2) | 1.47 | enough cells in well | inactive
Ncmap (noncompact myelin associated protein) | -0.53 | enough cells in well | inactive
Senp2 (SUMO/sentrin specific peptidase 2) | – | fewer than 50 cells per well; well left out of calls | inactive
Ubash3a (ubiquitin associated and SH3 domain containing, A) | 0.2 | enough cells in well | inactive
Ankrd49 (ankyrin repeat domain 49) | 0.72 | enough cells in well | inactive
Rps6ka3 (ribosomal protein S6 kinase A3) | 0.16 | enough cells in well | inactive
Nudt16l1 (nudix hydrolase 16 like 1) | 1.63 | enough cells in well | inactive
Ak8 (adenylate kinase 8) | -0.03 | enough cells in well | inactive
Agbl3 (ATP/GTP binding protein-like 3) | 2.46 | enough cells in well | inactive
Ssb (small RNA binding exonuclease protection factor La) | -1.58 | enough cells in well | active
